In PubChem BioAssay AID540256 (National Center for Advancing Translational Sciences (NCATS), 2011):
Out of some 300,000 compounds screened, about 3,700 (1.2%) were called active. Inconclusive means that the source gave no clear call. Such entries were picked first, then a sample of the others. Calls follow the shape of the full dose curve; tested in HEK293 cells. Potencies beside an inconclusive call are fits to weak or partial responses and may not hold up.

Test: qHTS for Inhibitors of binding or entry into cells for Lassa Virus; also: nearly all actives have a fitted effect of over 50% in size
Settings: Lassa virus pseudotype entry inhibition, cell reporter; activity change, negative = inhibition: at 37.9 µM (top of the series) unless noted
% is scaled to controls: 0 for no effect and ±100 for the full control effect; potency is read from the fitted curve at half-maximal effect.

| SMILES | Potency | activity change, negative = inhibition |
| --- | --- | --- |
| c1ccc(OCCOc2ccccc2-c2nnco2)cc1 | inconclusive: 16.4 µM [activator, partial curve, poor fit] | – |
| CCC1=Nc2cc(C(=O)NCc3ccco3)ccc2Sc2ccc(Cl)cc21 | inconclusive: 2.59 µM [inhibitor, full curve, poor fit] | – |
| COc1cc(CC(=O)Nc2ccc(Cl)c(C(F)(F)F)c2)cc(OC)c1OC | inconclusive: 16.4 µM [inhibitor, single point] | – |
| CC1(C)Cc2c(sc3[nH]c(=S)n(Cc4ccccc4)c(=O)c23)CO1 | active: 6.51 µM | – |
| COc1ccc(CC(=O)Nc2nc(-c3ccc(OC)c(OC)c3)cs2)cc1OC | inconclusive: 12.6 µM [inhibitor, partial curve, poor fit] | – |
| O=C(Nc1cccc(-c2nc3cccnc3s2)c1)c1cccc(Br)c1 | – | inactive: -12.9% [at 46.1 µM] |
| CCOC(=O)c1ccc(NC(=O)c2cn(-c3ccccc3)nc2-c2ccc(OC)c(OC)c2)cc1 | – | inactive: 1.47% [at 46.1 µM] |
| O=c1cc(CSc2ccc([N+](=O)[O-])cc2)nc2sccn12 | – | inactive: 11.4% |
| COCCNc1nc2c(c(=O)n(C)c(=O)n2C)n1Cc1cccc(C(F)(F)F)c1 | inconclusive: 11.2 µM [inhibitor, partial curve, poor fit] | – |
| Cn1cccc1-c1nc2ccccc2n1Cc1ccccc1 | inconclusive: 31.6 µM [activator, partial curve, poor fit] | – |
| CC(=O)Nc1ccc2c(c1)ncn2-c1ccc(C)cc1 | inconclusive: 35.5 µM [inhibitor, single point] | – |
| Cc1nc(-c2ccc(S(=O)(=O)N3CCN(c4cc(Cl)ccc4C)CC3)cc2)co1 | – | inactive: 18.1% [at 46.1 µM] |
| CN(C)c1ccc(/C=C/C(=O)c2ccc(C(C)(C)C)cc2)cc1[N+](=O)[O-] | inconclusive: 35.5 µM [inhibitor, partial curve, poor fit] | – |
| CC1CN(C(=O)CCC(=O)N2CCC3(CC2)OCCO3)c2cc(Cl)ccc2O1 (stereo not given) | inconclusive: 35.5 µM [activator, single point] | – |
| COc1cc(/C=C2/SC(N)=NC2=O)ccc1Oc1ccc([N+](=O)[O-])cc1[N+](=O)[O-] | inconclusive: 0.355 µM [inhibitor, partial curve, poor fit] | – |
| CCOC(=O)c1cn2nc(N3CCCCC3)ccc2n1 | inconclusive: 25.1 µM [inhibitor, single point] | – |
| O=C(CSc1c2c(nc3cc(Cl)ccc13)CCCC2)N1CCN(c2ccccc2F)CC1 | – | inactive: 2.74% [at 46.1 µM] |
| CC(=O)Nc1ccc(S(=O)(=O)Oc2ccc(C(=S)N3CCCCC3)cc2)cc1 | inconclusive: 22.4 µM [inhibitor, single point] | – |
| COc1ccccc1NC(=O)CSc1oc(-c2ccccc2)nc1S(=O)(=O)c1ccc(C)cc1 | inconclusive: 2.51 µM [inhibitor, partial curve, poor fit] | – |
| Fc1ccc(NC(=S)NC2CC3CCC(C2)N3Cc2ccco2)cc1 (stereo not given) | – | inactive: 2.66% |
| CCCCNCCCOc1cccc(Cl)c1 | inconclusive: 1.16 µM [inhibitor, partial curve, poor fit] | – |
| O=C(N/N=C/c1ccc(-c2ccc(Br)cc2)o1)c1ccc2c(c1)OCO2 | inconclusive: 22.4 µM [inhibitor, partial curve, poor fit] | – |

One compound at a time (already shown).
CN(C)c1ccc(/C=C/C(=O)c2ccc(C(C)(C)C)cc2)cc1[N+](=O)[O-] is listed with Potency: inconclusive: 35.5 µM [inhibitor, partial curve, poor fit]
Cn1cccc1-c1nc2ccccc2n1Cc1ccccc1 is listed with Potency: inconclusive: 31.6 µM [activator, partial curve, poor fit]

Continuation:

| SMILES | Potency | activity change, negative = inhibition |
| --- | --- | --- |
| CNC(=O)c1cncc(C=Cc2ccccc2Cl)c1 | inconclusive: 8.88 µM [activator, full curve, poor fit] | – |
| CCOC(=O)c1c(CSc2ccccc2)n(C)c2cc(Br)c(OCC(O)CNC(CO)(CO)CO)cc12 (stereo not given) | inconclusive: 25.9 µM [inhibitor, single point] | – |
| CC(Cc1cccs1)NC(=S)Nc1ccc(Cl)cc1 (stereo not given) | – | inactive: -3.55% |
| Cc1ccc(S(=O)(=O)N(C)c2ccc(C(=O)NCCc3ccccc3)cc2)cc1 | inconclusive: 10 µM [inhibitor, partial curve] | – |
| COc1cc(/C=C(/C#N)c2nc3ccccc3[nH]2)ccc1OCc1ccc(C(=O)O)o1 | – | inactive: 12.9% |
| Cc1ccc(C(=O)Nc2nc(-c3nnn(-c4cccc(C(F)(F)F)c4)c3C)ns2)cc1 | – | inactive: 12.3% [at 46.1 µM] |
| Cc1cc(C(=O)COC(=O)c2n[nH]c3ccccc23)c(C)n1C | inconclusive: 0.58 µM [activator, single point] | – |
| CCc1ccccc1NC(=O)c1ccc(=O)n(Cc2ccc(F)cc2)c1 | – | inactive: 10.5% [at 46.1 µM] |
| CSCCC(NS(=O)(=O)c1ccc2c(c1)oc(=O)n2C)C(=O)N1CCN(c2ccc(C(C)=O)cc2)CC1 (stereo not given) | inconclusive: 0.316 µM [inhibitor, full curve, poor fit] | – |
| O=c1[nH]c(CN2CCc3ccccc32)nc2scc(-c3cccs3)c12 | inconclusive: 10 µM [inhibitor, partial curve, poor fit] | – |
| CCOc1cc(-c2c(C#N)c(N)nc3c2CCc2ccccc2-3)ccc1O | inconclusive: 35.5 µM [inhibitor, single point] | – |
| CCN(CC)S(=O)(=O)c1ccc(/C=C/C(=O)OCC(=O)c2c(N)n(C)c(=O)n(C)c2=O)cc1 | inconclusive: 0.631 µM [inhibitor, partial curve, poor fit] | – |
| COc1ccc(-c2nn(-c3ccccc3)cc2/C=N/NC(=O)c2ccc(Br)o2)cc1 | inconclusive: 3.98 µM [inhibitor, full curve, poor fit] | – |
| Cc1cccc(NC(=O)c2cccc(Cn3cc(Br)c([N+](=O)[O-])n3)c2)c1C | inconclusive: 10 µM [inhibitor, single point] | – |
| O=c1cc(-c2ccccc2Cl)oc2c(Br)ccc(O)c12 | inconclusive: 6.51 µM [activator, single point] | – |
| CCOC(=O)c1nc(Nc2ccc(C(=O)OC)cc2)c2ccccc2n1 | inconclusive: 10 µM [inhibitor, partial curve] | – |
| N#C/C=C(/N)c1ccc(Br)cc1 | – | inactive: -18.7% |
| O=C(c1cccc(Cl)c1)n1nc(-c2cccnc2)nc1NCc1ccccc1 | inconclusive: 31.6 µM [activator, single point] | – |
| c1ccc(-c2cn(-c3ccccc3)c3ncnc(NCCCN4CCOCC4)c23)cc1 | inconclusive: 12.6 µM [inhibitor, partial curve, poor fit] | – |
| COc1cc(NS(=O)(=O)c2ccc(C)cc2)c2ncccc2c1 | inconclusive: 20.6 µM [inhibitor, partial curve, poor fit] | – |
| O=C(c1cc2ccc([N+](=O)[O-])cc2oc1=O)N1CCOCC1 | – | inactive: 6.83% [at 46.1 µM] |
| Cc1cccc(CNC(=O)c2ccc(C)c(-n3c(C)nc4cccnc43)c2)c1 | inconclusive: 1.41 µM [inhibitor, partial curve, poor fit] | – |

| SMILES | Potency | activity change, negative = inhibition |
| --- | --- | --- |
| Cc1ccsc1C(=O)NNC(=O)c1csc(N2CCOCC2)n1 | – | inactive: 0.381% |
| Cc1nc2scc(-c3ccc(Cl)cc3)c2c(=O)n1N | – | inactive: 8.22% |
| COc1cccc(-n2cc(C(=O)OCc3ccc(Cl)cc3)c3ccccc3c2=O)c1 | inconclusive: 10 µM [inhibitor, partial curve, poor fit] | – |
| O=C(O)c1ccc2c(c1)C(=O)N(c1cccc(C(=O)/C=C/c3ccccc3)c1)C2=O | – | inactive: 14.1% |
| COc1cc(OC)c(NC(=O)c2c(C)oc3nc(C)nc(N4CCOCC4)c23)cc1Cl | inconclusive: 10 µM [activator, partial curve, poor fit] | – |
| COC(=O)C1C(=O)C2=C(CC1C)NC(C)=C(C(=O)OCc1ccc(OC)cc1)C2c1ccc(C)o1 (stereo not given) | inconclusive: 25.9 µM [inhibitor, single point] | – |
| N=c1c(S(=O)(=O)c2ccc(Cl)cc2)cc2c(=O)n3ccccc3nc2n1CCN1CCOCC1 | – | inactive: 18.6% |
| CCn1ccc2cc(S(=O)(=O)N3CCC(C(=O)NCCc4ccccc4)CC3)ccc21 | – | inactive: -3.28% [at 46.1 µM] |
| O=C(Cc1ccccc1)NCCc1c[nH]c2ccccc12 | inconclusive: 0.794 µM [inhibitor, partial curve, poor fit] | – |
| Cc1ccc(NS(=O)(=O)c2ccc(C(=O)NCCCN3CCCC3=O)cc2)cc1C | inconclusive: 3.98 µM [inhibitor, full curve, poor fit] | – |
| CC(=O)C1=C(c2ccc(Br)cc2)N(C(C)=O)n2c(nnc2C2CCCCC2)S1 | – | inactive: -1.33% [at 46.1 µM] |
| O=c1c(S(=O)(=O)c2cccc(Cl)c2)cn(Cc2ccccc2)c2cc(N3CCCCC3)c(F)cc12 | – | inconclusive: 59.5% [activator] [at 46.1 µM] |
| CCN(CC)S(=O)(=O)c1ccc2[nH]cc(C(=O)NCCc3ccccc3)c(=O)c2c1 | active: 0.224 µM | – |
| COc1ccccc1-c1nnc(SCC(=O)Nc2oc(C)c3c(C)n[nH]c(=O)c23)n1C | inconclusive: 1.26 µM [inhibitor, single point] | – |
| COc1ccc(N2CCN(C(c3cccs3)c3nnnn3C3CCCC3)CC2)cc1 (stereo not given) | inconclusive: 6.51 µM [inhibitor, full curve, poor fit] | – |
| COc1ccc(C(=O)NC2CC(C)(C)Cc3c2cnn3-c2ccccc2)c(OC)c1 (stereo not given) | inconclusive: 35.5 µM [inhibitor, single point] | – |
| Cc1ccc(C(=O)NC2CCCC(C)C2C)cc1S(=O)(=O)N1CCCCC1 (stereo not given) | inconclusive: 20 µM [inhibitor, partial curve, poor fit] | – |
| O=C(NCCCc1ccccc1)c1cccc(NC(=O)C2CCCC2)c1 | inconclusive: 0.112 µM [inhibitor, full curve, poor fit] | – |
| Cc1ccc(SCC(=O)N(C)CC(=O)Nc2cccc(F)c2)c(C)c1 | inconclusive: 0.1 µM [activator, full curve, poor fit] | – |
| Cc1noc(C)c1CSc1ccccc1C(=O)N1CCN(c2ccccc2)CC1 | active: 10 µM | – |
| Cc1cccc(-c2nc(CN3CCCC(C(=O)NC4CCCCCC4)C3)c(C)o2)c1 (stereo not given) | inconclusive: 16.4 µM [inhibitor, partial curve] | – |

Rewritten field by field: entries from further up
Cc1ccsc1C(=O)NNC(=O)c1csc(N2CCOCC2)n1
  activity change, negative = inhibition: inactive: 0.381%
N=c1c(S(=O)(=O)c2ccc(Cl)cc2)cc2c(=O)n3ccccc3nc2n1CCN1CCOCC1
  activity change, negative = inhibition: inactive: 18.6%
CCN(CC)S(=O)(=O)c1ccc2[nH]cc(C(=O)NCCc3ccccc3)c(=O)c2c1
  Potency: active: 0.224 µM
COc1ccccc1-c1nnc(SCC(=O)Nc2oc(C)c3c(C)n[nH]c(=O)c23)n1C
  Potency: inconclusive: 1.26 µM [inhibitor, single point]
